Earlier results, collected in patent publication US10238758B2, “Radiolabeled alpha-melanocyte stimulating hormone hybrid peptide for melanoma targeting” (STC.UNM, priority 2011, dated 2019).
At least one structure is not confirmed: it was looked up by name or label, or the drawing left a doubt. Positions of bridges follow the written chain, without caps; N, C: chain ends. Non-standard residues stand in square brackets, D forms with d. Residues, ends and D or L forms follow the SMILES beside them.

Chains of the proteins cited; added tags and fusions are not shown. Lines headed by an entry give the natural chain unless they say otherwise; changes in a name come on top.
UniProt Q01727: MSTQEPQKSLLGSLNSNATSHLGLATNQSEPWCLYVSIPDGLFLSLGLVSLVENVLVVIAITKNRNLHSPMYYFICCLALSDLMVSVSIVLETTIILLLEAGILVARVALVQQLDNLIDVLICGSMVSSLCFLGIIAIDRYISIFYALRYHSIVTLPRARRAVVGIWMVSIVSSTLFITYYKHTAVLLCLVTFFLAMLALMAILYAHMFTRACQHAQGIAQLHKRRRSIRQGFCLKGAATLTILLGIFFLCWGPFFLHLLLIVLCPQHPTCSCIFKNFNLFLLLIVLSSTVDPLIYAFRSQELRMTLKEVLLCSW

Molecular target: T1, MC1 receptor (Mus musculus, UniProt Q01727)
T1 construct: the B16/F1 cells were harvested and seeded into a 24-well cell culture plate; host or cells: B16/F1 murine melanoma cells
Settings: B16/F1 cells, from ref. 24; read-out: MC1 receptor binding affinity; cited from earlier work

In the case of CC(C)[C@H](NC(=O)[C@@H]1CCCN1C(=O)[C@H](CCCNC(=N)N)NC(=O)[C@H](CS)NC(=O)[C@H](Cc1c[nH]c2ccccc12)NC(=O)[C@H](CCCNC(=N)N)NC(=O)[C@@H](Cc1ccccc1)NC(=O)[C@H](Cc1c[nH]cn1)NC(=O)[C@H](CCC(=O)O)NC(=O)[C@H](CS)NC(=O)[C@H](CS)NC(=O)[C@H](CCCCN)NC(=O)[C@@H]1CC(=O)N[C@@H](CCCNC(=N)N)C(=O)N[C@@H](C)C(=O)N[C@@H](CC(=O)O)C(=O)N[C@H](Cc2ccc(O)cc2)C(=O)N1)C(N)=O [RAD-Lys-(Arg^11)CCMSH] (RAD[dY]DKCCEH[dF]RWCRPV-NH2; lactam N-5 (inferred)), the IC50 is given as 2.1 nM.
